PubChem BioAssay AID720540 (National Center for Advancing Translational Sciences (NCATS), 2013)
Among all 1,300 compounds or so, about 460 (35%) were called active. These results got no clear call from the source, so the numbers are uncertain. Calls come from the whole dose curve; as a rule, active = well fitted inhibition curve with a large enough effect; inconclusive = small, poorly fitted or top-dose-only effect; inactive = flat fitted curve, though single readings scatter.

Amino acid sequences for entries named in this document (tags omitted).
UniProt O00167, whole entry: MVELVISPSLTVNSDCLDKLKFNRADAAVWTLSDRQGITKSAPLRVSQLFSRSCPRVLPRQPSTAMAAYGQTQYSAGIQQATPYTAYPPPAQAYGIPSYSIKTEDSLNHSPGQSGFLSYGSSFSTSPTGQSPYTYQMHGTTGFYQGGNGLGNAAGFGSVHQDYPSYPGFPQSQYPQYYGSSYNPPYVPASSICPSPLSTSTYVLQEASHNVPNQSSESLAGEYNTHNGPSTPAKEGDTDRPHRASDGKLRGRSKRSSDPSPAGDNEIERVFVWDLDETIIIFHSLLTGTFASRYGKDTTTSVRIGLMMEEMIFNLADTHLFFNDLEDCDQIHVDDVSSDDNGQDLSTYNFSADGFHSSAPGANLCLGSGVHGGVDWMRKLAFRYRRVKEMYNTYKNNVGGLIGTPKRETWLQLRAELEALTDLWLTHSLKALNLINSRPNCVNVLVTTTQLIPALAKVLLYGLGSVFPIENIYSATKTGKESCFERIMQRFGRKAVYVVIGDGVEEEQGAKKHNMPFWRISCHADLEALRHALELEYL

The molecules below were run against Protein phosphatase EYA2 (Homo sapiens) (UniProt O00167) (assay: qHTS for Inhibitors of the Phosphatase Activity of Eya2: Confirmatory Assay for Cherry-picked Compounds). Conditions: purified EYA2 phosphatase activity, qHTS confirmation.
From the text: The Eya protein family is an essential co-activator of the Six1 transcription factor. Six1 is a developmental gene that is abnormally re-expressed in a large percentage of breast cancers. This over-expression plays a causal role in the initiation and metastatic development of breast cancers. The Eya family of protein is also found to contain a unique HAD phosphatase domain with protein tyrosine phosphatase activity which can potentially play a role in Six1-mediated breast tumorigenesis. Recently, Eya2 is found to dephosphorylate the histone variant H2AX and direct cells towards DNA repair instead of apoptosis in the event of DNA damage.
A 1536 well format, fluorescence based qHTS assay was developed and used to target the phosphatase activity of Eya2 (AID 488837). Inhibitors found against Eya2 could serve as potential therapeutic tools to inhibit Six1-mediated breast tumorigenesis and to increase the efficiency of radiation and certain chemo therapy. This assay assessed the activity of the primary screen cherry-picked compounds against Eya2. […]
Eya2 enzyme and 3-O-methyl-fluorescein phosphate (OMFP) substrate working solutions were reconstituted in the buffer reagent consist of 50 mM HEPES pH 7.5, 50 mM NaCl, […], 0.05% BSA and 1 mM DTT. […] The fluorescence signal was read using the PerkinElmer ViewLux plate reader using a 485 nm excitation and 525 nm emission filters. […]
Note: nearly all actives have a fitted effect of over 65% in size.
Potency is the fitted concentration of half-maximal effect.

Row | SMILES | Potency
1 | O=Cc1ccc(N(CCCl)CCCl)cc1 | inconclusive: 8.49 µM
